The supplement of paper PMC12067093, “Discovery and optimisation of a covalent ligand for TRIM25 and its application to targeted protein ubiquitination” (Chemical Science, 2025)
The other results are listed elsewhere or left out.

Amino acid sequences for entries named in this document (tags omitted). A change or cut given only in a name is not applied to a line headed by its entry.
UniProt Q05469: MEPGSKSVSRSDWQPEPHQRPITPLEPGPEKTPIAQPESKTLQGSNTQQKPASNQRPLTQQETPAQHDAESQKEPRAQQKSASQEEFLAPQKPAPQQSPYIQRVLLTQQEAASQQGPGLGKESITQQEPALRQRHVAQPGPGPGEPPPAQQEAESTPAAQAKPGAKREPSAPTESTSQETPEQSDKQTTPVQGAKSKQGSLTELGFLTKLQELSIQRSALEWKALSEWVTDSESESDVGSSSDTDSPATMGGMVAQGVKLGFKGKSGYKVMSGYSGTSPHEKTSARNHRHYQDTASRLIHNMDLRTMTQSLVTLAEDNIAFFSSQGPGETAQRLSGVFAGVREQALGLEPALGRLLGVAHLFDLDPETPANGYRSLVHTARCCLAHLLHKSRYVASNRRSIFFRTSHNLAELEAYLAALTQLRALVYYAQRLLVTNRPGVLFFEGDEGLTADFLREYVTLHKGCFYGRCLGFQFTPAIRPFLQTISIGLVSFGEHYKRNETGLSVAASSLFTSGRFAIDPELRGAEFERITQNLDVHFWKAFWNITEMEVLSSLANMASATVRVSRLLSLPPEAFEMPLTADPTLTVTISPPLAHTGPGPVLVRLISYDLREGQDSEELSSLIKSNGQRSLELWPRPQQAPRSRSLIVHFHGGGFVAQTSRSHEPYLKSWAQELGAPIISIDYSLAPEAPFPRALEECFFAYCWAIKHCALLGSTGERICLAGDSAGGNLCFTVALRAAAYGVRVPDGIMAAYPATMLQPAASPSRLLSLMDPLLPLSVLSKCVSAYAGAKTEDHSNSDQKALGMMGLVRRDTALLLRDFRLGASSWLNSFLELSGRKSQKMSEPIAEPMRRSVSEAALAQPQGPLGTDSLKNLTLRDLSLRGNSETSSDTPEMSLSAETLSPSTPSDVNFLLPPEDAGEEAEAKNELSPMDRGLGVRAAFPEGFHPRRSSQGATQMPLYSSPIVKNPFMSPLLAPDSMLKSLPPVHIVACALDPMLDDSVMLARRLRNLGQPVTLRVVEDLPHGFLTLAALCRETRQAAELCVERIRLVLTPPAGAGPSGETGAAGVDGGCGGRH

Target: LIPE_Q05469_991_SLPPVHIVACALDPMLDDSVMLAR (UniProt Q05469)
Assay: probe-labelled cysteine peptide fold change vs DMSO (competition) (log2 fold change); higher = less target engagement (more negative = stronger competition)
Conditions: THP-1, incubation time: 4 h
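Also: competitive profiling in live THP-1 cells: cysteine peptides tagged with an iodoacetamide desthiobiotin (IA-DTB) probe, intensity after compound treatment relative to DMSO-treated cells.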

Compound: Cc1cc(C(=O)N2CCCN(C(=O)CCl)CC2)ccc1-c1ccccc1 [compound 10]
- probe-labelled cysteine peptide fold change (10 µM): 0.354
- probe-labelled cysteine peptide fold change (50 µM): 0.241
